These are yes or no findings as the source states them, for the method shown. Binding seen in cells or lysates may run through a third protein. These calls come from enrichment with a bait or labelling near it, and not all partners need be listed. For some assays here: A no says only that the protein was not detected with the bait.
Assays:
[1] = target: SNAP25 (mouse (endogenous in mouse brain synaptosomes)) (UniProt P60879); test: affinity purification with mass spectrometry
[2] = target: SNAP25 (mouse (endogenous in mouse brain synaptosomes)) (UniProt P60879); test: condition: only in FLAG-α2aAR synaptosomes

By UniProt entry, the sequences of proteins in these tests, tags left out.
UniProt P60879: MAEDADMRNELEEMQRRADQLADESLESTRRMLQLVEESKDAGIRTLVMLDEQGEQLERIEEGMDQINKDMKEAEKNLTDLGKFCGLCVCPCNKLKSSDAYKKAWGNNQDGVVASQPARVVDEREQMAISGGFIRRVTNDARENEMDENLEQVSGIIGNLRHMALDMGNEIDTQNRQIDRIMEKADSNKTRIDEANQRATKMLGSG
UniProt P29387: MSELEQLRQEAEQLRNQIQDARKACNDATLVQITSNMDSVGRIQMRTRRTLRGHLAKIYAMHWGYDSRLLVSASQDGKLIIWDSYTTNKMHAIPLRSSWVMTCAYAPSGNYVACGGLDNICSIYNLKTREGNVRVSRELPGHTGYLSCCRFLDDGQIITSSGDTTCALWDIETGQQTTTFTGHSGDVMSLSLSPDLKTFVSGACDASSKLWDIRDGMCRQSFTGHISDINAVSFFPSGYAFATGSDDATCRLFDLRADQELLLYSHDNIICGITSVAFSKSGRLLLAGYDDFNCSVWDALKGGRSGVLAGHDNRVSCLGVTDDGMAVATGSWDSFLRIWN

Q: With Gβ4 (from UniProt P29387 1-340) as the substance, how does the binding [1] read?
A: Its binding is “binds”.

Q: And the binding [2]?
A: Its binding is “no binding”.
